In PubChem BioAssay AID2685 (National Center for Advancing Translational Sciences (NCATS), 2010):
Values joined by “and” are separate entries in the source; they are usually repeats but may differ in a detail not shown here. Equal values may be shown once. The list shows a part of the results. The main result of the screen is listed elsewhere. These columns were measured beside it and carry no call. The list favours compounds with an active or inconclusive main result. Words in brackets tell the shape of the fitted curve; partial curves, single points and poor fits give uncertain potencies.

Assay: qHTS Assay for Lipid Storage Modulators in Drosophila S3 Cells;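 for cell number change: cells counted by Cell Tracker Red CMTPX staining in the red channel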
Settings: BODIPY lipid droplet fluorescence, 18-24 h; for cell number change: measured here: cell count max response, cells fed with added oleic acid
Method in brief: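 Drosophila S3 cells got compounds at several concentrations plus oleic acid (400 uM solution). Laser-scanning cytometry with 488 nm excitation read lipid droplets at 500-530 nm and cells at 575-640 nm. Percent activity was relative to 20 uM Triacsin C.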

[1] = measured here: cell number channel AC50, cells fed with added oleic acid
[2] = measured here: lipid fluorescence (Fed channel) AC50, cells fed with added oleic acid

| SMILES | cell number change | AC50 [1] | AC50 [2] |
| --- | --- | --- | --- |
| Cc1ccc(NC(=S)Nc2ccc3[nH]c(=O)[nH]c3c2)cc1C | -33.8% | 0.103 µM [falling, full curve, poor fit] |  |
| O=C(/C=C/Nc1ccc(F)cc1)c1ccc(Oc2ncccn2)cc1 | 39.7% | 1.64 µM [rising, full curve, poor fit] | 1.84 µM [rising, partial curve] |
| CC1=C(C(=O)OCc2ccccc2)C(c2cccc([N+](=O)[O-])c2)NC(=O)N1C (stereo unspecified) | -38.4% | 14.6 µM [falling, single point] |  |
| CC1(C)CC(=O)c2sc(NS(=O)(=O)c3ccc(Br)cc3)nc2C1 | -9.27% |  | 0.651 µM [falling, partial curve, poor fit] |
| Cc1ccc(OCCCNC2CCCC2)cc1 | 96.1% | 29.1 µM [rising, single point] | 16.4 µM [rising, partial curve] |
| NS(=O)(=O)c1ccc(Nc2nc(-c3cccnc3)cs2)cc1 | -17.3% |  | 0.461 µM [rising, single point] |
| Cc1ccc(S(=O)(=O)N(C)C)cc1NC(=O)CN1C(=O)NC2(CCCc3ccccc32)C1=O (stereo unspecified) |  |  | 1.46 µM [rising, partial curve] |
| COc1ccc2cc(S(=O)(=O)N3CCOCC3)ccc2c1 | 42.6% | 29.1 µM [rising, single point] | 29.1 µM [rising, single point] |
| O=C(CN1C(=O)CC(c2ccccc2)=Nc2ccccc21)NC1CCCCC1 | -20% |  | 0.0146 µM [falling, full curve, poor fit] |
| O=C(O)c1c(Cl)nc2ccccn12 |  |  | 2.59 µM [falling, full curve] |
| CC(C)OC(=O)CSc1nnc2c(n1)[nH]c1ccc(F)cc12 | 10.5% |  | 16.4 µM [rising, single point] |
| COc1ccc(CCNC(=O)CSc2nc(-c3ccco3)cc(C(F)(F)F)n2)cc1OC | 13.5% |  | 1.84 µM [rising, partial curve] |
| COc1cc2c(cc1OC)CN(C(=O)/C=C/c1ccc(F)cc1)CC2 | 8.82% |  |  |
| CCCCCn1c(SCCOCC)nc2c1c(=O)[nH]c(=O)n2C | 32.6% |  |  |
| Cc1nc(SCC(=O)NCc2ccco2)c2c3c(sc2n1)CCCC3 | -23.8% |  |  |
| Cc1ccsc1/C=C1\SC(=S)N(CC2CCCO2)C1=O (stereo unspecified) | -29.3% | 0.517 µM [falling, partial curve, poor fit] | 25.9 µM [falling, partial curve, poor fit] |
| O=C(Oc1ccccc1)N1CCOCC1 | 0.794% |  | 0.13 µM [falling, full curve] |
| CN(C)CCCNCCCNC(=O)c1ccccn1 | -8.12% |  |  |
| CCN1C(=NCCCCO)N[C@@H](c2cccc(C(F)(F)F)c2)C(C(=O)OC)=C1C | -7.78% and 16% |  |  |

| SMILES | cell number change | AC50 [1] | AC50 [2] |
| --- | --- | --- | --- |
| CC(=O)Nc1ccc(-c2cn3c(n2)SCC3)cc1 |  | 0.366 µM [falling, partial curve, poor fit] | 2.06 µM [falling, partial curve, poor fit] |
| CC(C)COC(=O)c1ccccc1N1C(=O)C2C3CCC(C3)C2C1=O (stereo unspecified) | -0.958% |  | 4.61 µM [rising, single point] |
| COc1ccc(C(c2nnnn2C(C)(C)C)N2CCN(c3nc4ccccc4s3)CC2)cc1 (stereo unspecified) | -17.5% |  | 0.731 µM [falling, full curve, poor fit] |
| Cc1cccc(CNc2ccc(S(=O)(=O)N3CCCCC3)cc2)c1 | -13.2% |  | 29.1 µM [falling, single point] |
| CCOc1cccc(-c2c(C(=O)N/N=C(\C)c3cccnc3)nnn2-c2nonc2N)c1 | -19.2% | 1.84 µM [falling, partial curve] | 6.51 µM [falling, partial curve, poor fit] |
| CCc1ccc(/C=C/C(=O)c2cc(Br)ccc(=O)c2O)cc1 | -31% | 25.9 µM [falling, single point] |  |
| COc1ccc(CCNC(=O)c2cnn3c(C(F)F)cc(C)nc23)cc1OC | -7.01% |  | 29.1 µM [rising, single point] |
| O=C(O)c1ccc(NC(=O)C2(c3ccccc3)CCOCC2)cc1 | -7.42% |  | 0.731 µM [falling, full curve, poor fit] |
| Cc1ccc2[nH]c(=O)c(C3=NN(C(=O)CCC(=O)O)C(c4cccs4)C3)c(-c3ccccc3)c2c1 (stereo unspecified) | -33% | 16.4 µM [falling, single point] |  |
| CC(C)c1ccc(CN(C)CC(O)c2ccccc2)cc1 (stereo unspecified) | 16.5% |  | 6.51 µM [rising, single point] |
| Cc1nc2cc(C(=O)OCC(=O)NC3CCS(=O)(=O)C3)ccc2n1-c1ccccc1 (stereo unspecified) | -35.9% | 8.2 µM [falling, partial curve] | 5.8 µM [falling, single point] |
| CCc1ccc(C2CC(c3ccccc3Cl)Nc3nc(N)nn32)cc1 (stereo unspecified) |  |  | 2.91 µM [rising, partial curve] |
| CCCC1=[N+](CC(=O)c2ccc(Br)cc2)CCn2cccc21 | -0.213% | 0.116 µM [falling, full curve, poor fit] | 0.116 µM [falling, full curve] |
| Cc1ccc(-n2[nH]c3c4c(ccc3c2=O)C(=O)c2ccccc2C4=O)cc1 | -34.8% | 23.1 µM [falling, partial curve, poor fit] | 0.651 µM [rising, single point] |
| N#CCC(=O)Nc1ccc(C(=O)NNC(=O)CCN2CCN(c3ccccc3)CC2)cc1 | 18.1% |  | 6.51 µM [rising, single point] |
| Cc1cccc(C)c1OCC(=O)Nc1cccc(C(=O)O)c1 | -12.4% |  |  |
| COc1cc(SC)ccc1C(=O)Nc1nccs1 | 6.63% |  | 23.1 µM [rising, single point] |
| NS(=O)(=O)c1ccc(CCNC(=O)CNC(=O)c2ccc(Oc3ccccc3)cc2)cc1 | 15% |  | 4.11 µM [rising, partial curve] |
| COc1cc2c(cc1O)CCN(C(=O)CSc1nncn1C)[C@@H]2C | 3.62% | 0.82 µM [rising, single point] | 3.66 µM [rising, single point] |

Single values from the results shown.
Entry of Cc1ccc2[nH]c(=O)c(C3=NN(C(=O)CCC(=O)O)C(c4cccs4)C3)c(-c3ccccc3)c2c1 (stereo unspecified) under cell number change: -33%
Entry of COc1cc2c(cc1O)CCN(C(=O)CSc1nncn1C)[C@@H]2C under AC50 [2]: 3.66 µM [rising, single point]
Entry of Cc1ccc(-n2[nH]c3c4c(ccc3c2=O)C(=O)c2ccccc2C4=O)cc1 under AC50 [1]: 23.1 µM [falling, partial curve, poor fit]
